Survivor count and T/C data for 33 compounds are collected here from PubChem BioAssay AID256 (DTP/NCI, 2004).

This assay deals with CD2F1 mice, L1210 leukemia ip, survival T/C. As to the kind of experiment: NCI In Vivo Anticancer Drug Screen. Data for tumor model L1210 Leukemia (intraperitoneal) in CD2F1 (CDF1) mice. Conditions: higher T/C = longer survival. A digest of the protocol: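 In this screen, transplantable tumors were grown in mice given either the compound or its vehicle. Results were expressed as the treated measurement relative to the control measurement.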

[1] abbreviates: T/C endpoint: mean survival time, dose: 400.0 mg/kg/injection, schedule: Q04DX003 (ip), vehicle: saline with Tween-80.
The mark [2] stands for this setting: T/C endpoint: mean survival time, dose: 200.0 mg/kg/injection, schedule: Q04DX002 (ip), vehicle: saline with Tween-80.
The mark [3] stands for this setting: T/C endpoint: mean survival time, dose: 400.0 mg/kg/injection, schedule: Q04DX002 (ip), vehicle: saline with Tween-80.
[4] abbreviates: T/C endpoint: mean survival time, dose: 100.0 mg/kg/injection, schedule: Q01DX009 (ip), vehicle: saline with Tween-80.
Setting [5] is: T/C endpoint: mean survival time, dose: 400.0 mg/kg/injection, schedule: Q01DX001 (ip), vehicle: saline.
Setting [6] is: T/C endpoint: mean survival time, dose: 50.0 mg/kg/injection, schedule: Q01DX009 (ip), vehicle: Klucel (hydroxypropylcellulose) (HPC).
Setting [7] is: T/C endpoint: mean survival time, dose: 400.0 mg/kg/injection, schedule: Q01DX009 (ip), vehicle: Klucel (hydroxypropylcellulose) (HPC).
Setting [8] is: T/C endpoint: mean survival time, dose: 200.0 mg/kg/injection, schedule: Q04DX003 (ip), vehicle: saline with Tween-80.
Where [9] appears, read: T/C endpoint: mean survival time, dose: 200.0 mg/kg/injection, schedule: Q01DX001 (ip), vehicle: saline.
The mark [10] stands for this setting: T/C endpoint: mean survival time, dose: 100.0 mg/kg/injection, schedule: Q04DX003 (ip), vehicle: saline with Tween-80.

The list does not hold the whole screen: it is rich in T/C values a quarter to a half above the control, in often repeated tests (any T/C) and in doses without a T/C. Other doses and runs of a compound stand elsewhere. T/C gives the treated animals as a percentage of the vehicle group. Some doses have a count of surviving animals in place of a T/C: the source files T/C as zero there, which appears to mark a toxic dose or a test without result, not a measured value. Some survivor counts are full or nearly so, which does not show that the dose was tolerated: survival well below the control is almost never listed, so the zero probably covers shortened survival too. Counts of survivors are from the toxicity check (mostly the fifth day) where no day follows; animals may have died later. Schedules are NCI's codes, taken here to give the interval after Q, in days (D) or hours (H), and the number of doses after X. For survival time, the PubChem record calls one and a half times the control and up active, and a quarter to a half above the control has no call in these data; cut-offs in other NCI protocols can differ. Some entries were tested several times; the values are given in rising order. Some T/C values carry the count of animals alive at the toxicity check (mostly the fifth day); where none is given, no animal had died by that day.

For `O=S(c1cc(Cl)ccc1O)c1cc(Cl)ccc1O`, the survivor count under setting [1] was 1 of 6.

For `C[n+]1c2ccccc2c(Nc2ccc(NS(=O)(=O)CCCCN=C(N)N)cc2)c2ccc(N)cc21`, where the note is “T/C endpoint: mean survival time, dose: 12.5 mg/kg/injection, schedule: Q01DX009 (ip), vehicle: water”, the T/C is 139 % of control [7 of 10 alive]. Besides, the survivor count (T/C endpoint: mean survival time, dose: 25.0 mg/kg/injection, schedule: Q01DX009 (ip), vehicle: water) is 0 of 10; the survivor count (T/C endpoint: mean survival time, dose: 50.0 mg/kg/injection, schedule: Q01DX009 (ip), vehicle: water) is recorded as 0 of 10; the survivor count (T/C endpoint: mean survival time, dose: 100.0 mg/kg/injection, schedule: Q01DX009 (ip), vehicle: water) was 0 of 10.

`O=C1C=CC(=O)N1c1ccc(Br)cc1` (tested in a mixture with another compound): the survivor count (T/C endpoint: mean survival time, dose: 400.0 mg/kg/injection, schedule: Q01DX009 (ip), vehicle: acetone) is 3 of 6.

For `[Cl][Pt+2][Cl].[NH-]c1cc(Cl)c(Cl)c(Cl)c1[NH-]`, for the setting “T/C endpoint: mean survival time, dose: 80.0 mg/kg/injection, schedule: Q01DX009 (ip), vehicle: saline with Tween-80”, the survivor count is 6 of 8.

With `O=C(C=C(C(F)(F)F)C(F)(F)F)c1ccc(F)cc1`, the survivor count runs as follows: (T/C endpoint: mean survival time, dose: 200.0 mg/kg/injection, schedule: Q04DX003 (ip), vehicle: other) 3 of 6; (T/C endpoint: mean survival time, dose: 400.0 mg/kg/injection, schedule: Q04DX003 (ip), vehicle: other) 0 of 6.

For the compound `CCCCOP(=O)(N=C=S)OCCCC`, the survivor count runs as follows: under setting [2], 1 of 3; under setting [3], 0 of 3.

For the compound `CC(=O)NC1CCC(C(C)C)CC1` (centres undefined), the survivor count reads like this: (T/C endpoint: mean survival time, dose: 100.0 mg/kg/injection, schedule: Q01DX001 (ip), vehicle: saline with Tween-80) 1 of 6; (T/C endpoint: mean survival time, dose: 200.0 mg/kg/injection, schedule: Q01DX001 (ip), vehicle: saline with Tween-80) 0 of 6.

As for `CCCN(CCC)CCCC#N`, where the note is “T/C endpoint: mean survival time, dose: 200.0 mg/kg/injection, schedule: Q01DX009 (ip), vehicle: saline with Tween-80”, the survivor count is listed as 1 of 6.

As for `CC(C)CC(CCl)Cc1nc2ccccc2[nH]1` (centres undefined), under setting [3], the survivor count is 0 of 3.

For `O=C1[C@@H]2C3C=CC([C@H]4C(=O)N(CO)C(=O)[C@@H]34)[C@@H]2C(=O)N1CO`, where the note is “T/C endpoint: median survival time, dose: 100.0 mg/kg/injection, schedule: Q01DX005 (ip), vehicle: Klucel (hydroxypropylcellulose) (HPC)”, the T/C was 137 % of control. The survivor count (T/C endpoint: median survival time, dose: 400.0 mg/kg/injection, schedule: Q01DX005 (ip), vehicle: Klucel (hydroxypropylcellulose) (HPC)) is listed as 0 of 6.

Consider `[N-]=[N+]=NC1=C(Br)C(=O)OC1COC(=O)c1ccccc1` (centres undefined), for which the survivor count (T/C endpoint: mean survival time, dose: 25.0 mg/kg/injection, schedule: Q04DX002 (ip), vehicle: saline with Tween-80) is 3 of 3.

In the case of `Cc1cc(Cc2ccc(N=C=O)c(C)c2)ccc1N=C=O`, under setting [4], the survivor count is on record as 6 of 6.

In the case of `CCOC(=O)C(F)(C(=O)OCC)[N+](=O)[O-]`, the survivor count under setting [5] was 1 of 6.

`O=C(NC(Cc1ccc(I)cc1)C(=O)O)c1cccc(Br)c1` (centres undefined): the survivor count (T/C endpoint: median survival time, dose: 400.0 mg/kg/injection, schedule: Q01DX009 (ip), vehicle: Klucel (hydroxypropylcellulose) (HPC)) is reported as 2 of 6.

As to `NC(=O)n1ccnc1`, under setting [5], the survivor count is listed as 2 of 6.

As to `CC(=O)Nc1cccc(N=NN(C)C)c1`, the T/C was 134 % of control [9 of 10 alive] (T/C endpoint: mean survival time, dose: 25.0 mg/kg/injection, schedule: Q01DX009 (ip), vehicle: Klucel (hydroxypropylcellulose) (HPC)) and 140 % of control under setting [6]. The survivor count by setting is: (T/C endpoint: mean survival time, dose: 200.0 mg/kg/injection, schedule: Q01DX009 (ip), vehicle: Klucel (hydroxypropylcellulose) (HPC)) 0 of 6; under setting [7], 0 of 6.

With `CCCCOCCSc1ccccc1`, under setting [5], the survivor count is recorded as 0 of 6.

Take `O=C(Cc1ccccc1)C(Br)C(Br)c1ccccc1` (centres undefined): the survivor count is 2 of 6 (T/C endpoint: mean survival time, dose: 50.0 mg/kg/injection, schedule: Q01DX009 (ip), vehicle: saline with Tween-80); 3 of 6 under setting [4]; 4 of 6 under setting [8]; 0 of 6 under setting [1].

As to `CCC(C)CC(C)N` (centres undefined), the survivor count under setting [9] is recorded as 1 of 4 and the survivor count under setting [5] is recorded as 0 of 4.

Take `CC(=O)Nc1c(Cl)c(Cl)c2c(c1Cl)Cc1cc(Br)ccc1-2`: the survivor count reads like this: under setting [6], 1 of 6; (T/C endpoint: mean survival time, dose: 100.0 mg/kg/injection, schedule: Q01DX009 (ip), vehicle: Klucel (hydroxypropylcellulose) (HPC)) 0 of 6.

Consider `CC[N+]1(C)C2CCC1CC(O)C2` (centres undefined), for which the survivor count (T/C endpoint: mean survival time, dose: 400.0 mg/kg/injection, schedule: Q04DX002 (ip), vehicle: saline) is reported as 0 of 3.

With `CN(C)C(=O)/N=N/C(=O)N(C)C`, the survivor count is on record as 2 of 6 under setting [9] and 0 of 6 under setting [5].

Turning to `NC1=C(Cl)C(=O)c2ccccc2C1=O`, the survivor count was 0 of 6 under setting [8] and 0 of 6 under setting [1].

Regarding `Cn1cc(C(O)CN2CCCCC2)c2ccccc21` (centres undefined), the survivor count is, setting by setting: under setting [8], 0 of 3; under setting [1], 0 of 3.

As to `CCC(O)(c1ccccc1)C(O)(CC)c1ccccc1` (centres undefined), the survivor count is 0 of 3 under setting [2] and 0 of 3 under setting [3].

Consider `O=C1C(Cl)=CC(=NS(=O)(=O)c2ccccc2)C=C1Cl`, for which the survivor count under setting [10] is given as 0 of 6, the survivor count under setting [8] is reported as 0 of 6 and the survivor count under setting [1] is listed as 0 of 6.

`C[n+]1ccc(/C=C/c2c[nH]c3ccccc23)cc1`: the survivor count reads like this: under setting [10], 2 of 6; under setting [8], 4 of 6; under setting [1], 0 of 6.

As for `CO[C@@]12[C@@H]3N[C@@H]3CN1C1=C(C(=O)C(NCCN)=C(C)C1=O)[C@@H]2COC(N)=O`, the T/C by setting is: (T/C endpoint: median survival time, dose: 1.5 mg/kg/injection, schedule: Q01DX001 (ip), vehicle: water) 125 and 133 % of control; (T/C endpoint: median survival time, dose: 3.0 mg/kg/injection, schedule: Q01DX001 (ip), vehicle: water) 138, 147, 148 % of control.

As for `CC(C)NCC1CC2c3cccc4[nH]cc(c34)CC2N(C)C1` (centres undefined), the survivor count is listed as 1 of 3 (T/C endpoint: median survival time, dose: 100.0 mg/kg/injection, schedule: Q04DX003 (ip), vehicle: saline with Tween-80) and 0 of 3 (T/C endpoint: median survival time, dose: 200.0 mg/kg/injection, schedule: Q04DX003 (ip), vehicle: saline with Tween-80).

Regarding `CSc1nc(Cl)c2cc(Cl)[nH]c2n1`, the survivor count is, setting by setting: (T/C endpoint: median survival time, dose: 12.5 mg/kg/injection, schedule: Q01DX005 (ip), vehicle: saline with Tween-80) 2 of 6; (T/C endpoint: median survival time, dose: 25.0 mg/kg/injection, schedule: Q01DX005 (ip), vehicle: saline with Tween-80) 0 of 6; (T/C endpoint: median survival time, dose: 50.0 mg/kg/injection, schedule: Q01DX005 (ip), vehicle: saline with Tween-80) 0 of 6; (T/C endpoint: median survival time, dose: 200.0 mg/kg/injection, schedule: Q01DX005 (ip), vehicle: saline with Tween-80) 2 of 6.

For the compound `CC12CC(C(=O)O)C3(O)CC(C)(C1)CC(C)(C2)C3` (centres undefined) (tested in a mixture with another compound), under setting [7], the survivor count was 0 of 6.

As to `Cc1cc2ccccc2c[n+]1C`, the survivor count reads like this: (T/C endpoint: mean survival time, dose: 100.0 mg/kg/injection, schedule: Q04DX003 (ip), vehicle: saline) 6 of 6; (T/C endpoint: mean survival time, dose: 200.0 mg/kg/injection, schedule: Q04DX003 (ip), vehicle: saline) 0 of 6; (T/C endpoint: mean survival time, dose: 400.0 mg/kg/injection, schedule: Q04DX003 (ip), vehicle: saline) 0 of 6.

On to `CC1=C(N2CC2)C(=O)c2c(COC(N)=O)c3n(c2C1=O)C[C@H]1N[C@@H]31`, for which the T/C (T/C endpoint: mean survival time, dose: 48.0 mg/kg/injection, schedule: Q01DX001 (ip), vehicle: distilled water + Tween-80) is 131 % of control [5 of 6 alive]. For the same compound, the survivor count (T/C endpoint: mean survival time, dose: 96.0 mg/kg/injection, schedule: Q01DX001 (ip), vehicle: distilled water + Tween-80) is recorded as 0 of 6.
